The whole screen tested about 230,000 compounds, of which about 310 (0.13%) were called active. This list was built around the results that the source calls inconclusive (neither active nor inactive); the mix of calls is not that of the screen. Calls come from the whole dose curve; as a rule, active = well fitted activation curve with a large enough effect; inconclusive = small, poorly fitted or top-dose-only effect; inactive = no such curve, though single readings can be large or run the other way. Potencies beside an inconclusive call are fits to weak or partial responses and may not hold up.
Assay: qHTS Multiplex Assay to Identify Dual Action Probes in a Cell Model of Huntington: Cytoprotection (ATP); note: nearly all actives have a fitted effect of over 45% in size;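 for cytoprotection (ATP increase): toxic huntingtin expression switched on by the ecdysone agonist tebufenozide; % of control where 0% means no effect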
Details: PC12 HTT-Q103 induced, ATP luminescence, 40 h; cytoprotection (ATP increase): at 56.4 µM (top of the series) unless noted
Method in brief: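 Quantitative HTS on tebufenozide-induced (100 nM) PC12 cells expressing HTTQ103 exon 1–GFP; compounds tested as a concentration series; survival measured via cellular ATP.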
Potency is the fitted concentration of half-maximal effect.

Compound | Potency | cytoprotection (ATP increase)
C[C@H]1/C=C\CC(=O)NCc2cccc(c2)CNC(=O)N[C@H]1c1ccccc1 | inconclusive: 3.16 µM [activator, single point] | –
CC1CC(C)CN(C(=O)/C=C/c2ccc([N+](=O)[O-])s2)C1 (centres undefined) | inconclusive: 0.282 µM [activator, partial curve] | –
O=C1/C(=C/c2ccccc2[N+](=O)[O-])COc2ccccc21 | inconclusive: 14.1 µM [activator, single point] | –
Cn1cccc1C(=O)N1CCC[C@@]2(CCN(c3cccc(-c4ccccc4)c3)C2)C1 | inconclusive: 11.2 µM [activator, partial curve, poor fit] | –
CC1=C(C(=O)Nc2nc3ccccc3s2)C(c2ccco2)C(C#N)=C(SCC(=O)NC2CCCCC2)N1 (centres undefined) | inconclusive: 0.562 µM [activator, single point] | –
N=C1/C(=C\c2coc3ccc(O)cc3c2=O)C(=O)N=C2SC=CN12 | – | inactive: 1.81% [at 10 µM]
CCN(CC)S(=O)(=O)c1cccc(-c2nnc(SCC(=O)c3cc(C)n(C4CC4)c3C)o2)c1 | inconclusive: 0.562 µM [activator, full curve, poor fit] | –
CC1(C)CCC2=C(O1)c1ccccc1C(=O)C2=O | inactive | –
COc1cccc(Cn2c(=O)c(-c3cccc(C#N)c3)nc3cnc(N4CCOCC4)nc32)c1 | – | inactive: -83.1%
C=CCN1C(=O)C(O)(CC(=O)c2c(C)n[nH]c2C)c2cc(Br)ccc21 (centres undefined) | – | inactive: -7.23%
CCCCC/C=C\C\C=C/C=C/C=C/[C@@H](SCC(N)C(=O)O)[C@@H](O)CCCC(=O)O (some centres undefined) | inconclusive: 4.47 µM [activator, full curve, poor fit] | –
CCOc1cc(/C=N\NC(=O)c2ccc(C)nc2)cc([N+](=O)[O-])c1O | inconclusive: 5.62 µM [activator, single point] | –
CC[C@@]12CCCN3CCc4c(n(c5ccccc45)[C@](O)(C(=O)OC)C1)[C@H]32 | inconclusive: 0.224 µM [activator, full curve, poor fit] | –
FC(F)(F)c1nc(N2CCCC2)ncc1-c1nnnn1-c1ccc(Cl)cc1 | active: 3.55 µM | –
CCN(CC)S(=O)(=O)c1ccc(C(=O)Nc2cccc(C)c2)cc1 | – | inactive: -12.1%
CCc1nc2ccccc2n1CCC(=O)O | inconclusive: 1.26 µM [activator, single point] | –
O=C(Nc1ccc(OC(F)(F)F)cc1)Nc1cccnc1 | – | inactive: -19.3% [at 10 µM]
CC(C)(C)NC(=O)NC(=O)COC(=O)c1c(F)cccc1Cl | inconclusive: 0.0891 µM [activator, partial curve, poor fit] | –
O=C(c1cccnc1)N1CCN(c2ccc3ccccc3n2)CC1 | inconclusive: 5.62 µM [activator, single point] | –
Clc1cccc(CN2CCN(c3nc4nonc4nc3NC3CC3)CC2)c1 | – | inactive: -28.7% [at 10 µM]
CN=C1SC(C(=O)Nc2ccccc2Cl)CC(=O)N1c1ccc(OC(F)(F)Cl)cc1 (centres undefined) | inconclusive: 3.98 µM [activator, single point] | –
CCCSc1nc2ccsc2c(=O)n1CC | – | inactive: 9.62% [at 10 µM]

Compound | Potency | cytoprotection (ATP increase)
Cc1ccc(NC(=S)Nc2ccc3cn[nH]c3c2)cc1C | – | inactive: 18.1% [at 10 µM]
COc1ccc(S(=O)(=O)N2CCN(c3ccccc3)CC2)cc1 | – | inactive: 24% [at 10 µM]
O=c1cc(-c2ccccc2Cl)oc2c([N+](=O)[O-])c(O)cc(O)c12 | inconclusive: 7.08 µM [activator, single point] | –
Cc1nc2c(C(=O)NCCC3=CCCCC3)c[nH]n2c(=O)c1Cl | – | inactive: 0.633%
O=C(CNC(=O)c1ccc(Cl)cc1Cl)NCCCn1ccnc1 | inconclusive: 0.112 µM [activator, partial curve, poor fit] | –
O=C(CS(=O)CC(=O)N(c1cccc(F)c1)C(C(=O)NC1CCCCC1)c1ccco1)Nc1ccc(F)cc1 (centres undefined) | inconclusive: 1.26 µM [activator, single point] | –
CC1COc2c(N3CCN(C)CC3)c(F)cc3c(=O)c(C(=O)O)cn1c23 (centres undefined) | inconclusive: 0.316 µM [activator, partial curve] | –
COc1cccc(Nc2ncc3nc(-c4cn(C)c5ccccc45)c(=O)n(CCC#N)c3n2)c1 | inconclusive: 2 µM [activator, partial curve] | –
C=CCOc1ccc(/C=N/N2C(=O)C(CC(=O)Nc3ccc(F)cc3F)SC2=NC)cc1 (centres undefined) | – | inactive: 15.1% [at 1.9 µM]
COc1ccc(CCNC(=O)CN2C(=O)NC(CCSC)C2=O)cc1 (centres undefined) | inconclusive: 0.316 µM [activator, partial curve] | –
Cc1ccc(OCCCC(=O)Nc2ccccc2C(F)(F)F)cc1 | – | inactive: -27%
O=c1cnc2cnc(N3CCOCC3)nc2n1C[C@H]1CCCO1 | inconclusive: 31.6 µM [activator, single point] | –
COc1cc(/C=C/C(=O)c2cccs2)cc(OC)c1OC | inconclusive: 0.891 µM [activator, single point] | –
COC(=O)C1=C(C(=O)OC)[C@@H]2N(C)c3ccccc3[C@@]23C[C@@H](C(=O)OC)N(S(=O)(=O)c2c(C)noc2C)C3=N1 | inconclusive: 1.26 µM [activator, single point] | –
CCOC(=O)CSc1nc2ccccc2n2cnnc12 | – | inactive: -11.8% [at 0.074 µM]
CO[C@H]1[C@H](O[C@H]2O[C@@H](C)[C@@H](O[C@@H]3C[C@](C)(O)[C@H](O)[C@H](C)O3)[C@@H](N(C)C)[C@@H]2O)[C@@H](CC=O)C[C@@H](C)[C@@H](O[C@H]2CC[C@H](N(C)C)[C@H](C)O2)/C=C\C=C/C[C@@H](C)OC(=O)C[C@H]1O | inconclusive: 0.251 µM [activator, full curve, poor fit] | –
CCOC(=O)c1cccc(NC(=O)/C=C/c2cccc([N+](=O)[O-])c2)c1 | inconclusive: 5.62 µM [activator, single point] | –
C[N+]1(C)CCc2cc3c(cc2[C@@H]1[C@@H]1C(=O)Oc2c1ccc1c2OCO1)OCO3 | inconclusive: 0.708 µM [activator, single point] | –
CN1CCN(c2cc3c(cc2F)c(=O)c(C(=O)O)cn3-c2ccc(F)cc2)CC1 | inconclusive: 6.31 µM [activator, partial curve, poor fit] | –
CCNC(=O)COC(=O)c1cc(-c2ccco2)nc2ccccc12 | – | inactive: -3.07% [at 10 µM]
CC(=O)C1=C(O)C(=O)N(CCc2c[nH]c3ccccc23)C1c1ccco1 (centres undefined) | inconclusive: 5.62 µM [activator, partial curve, poor fit] | –
CCCCN(Cc1cc2cc(C)ccc2[nH]c1=O)C(=O)c1ccccn1 | – | inactive: -17.3% [at 10 µM]

Sorted by molar mass (rising): part of the list above
Compound | Potency | cytoprotection (ATP increase)
COc1cc(/C=C/C(=O)c2cccs2)cc(OC)c1OC | inconclusive: 0.891 µM [activator, single point] | –
COc1ccc(S(=O)(=O)N2CCN(c3ccccc3)CC2)cc1 | – | inactive: 24% [at 10 µM]
CCCCN(Cc1cc2cc(C)ccc2[nH]c1=O)C(=O)c1ccccn1 | – | inactive: -17.3% [at 10 µM]
C[N+]1(C)CCc2cc3c(cc2[C@@H]1[C@@H]1C(=O)Oc2c1ccc1c2OCO1)OCO3 | inconclusive: 0.708 µM [activator, single point] | –
CO[C@H]1[C@H](O[C@H]2O[C@@H](C)[C@@H](O[C@@H]3C[C@](C)(O)[C@H](O)[C@H](C)O3)[C@@H](N(C)C)[C@@H]2O)[C@@H](CC=O)C[C@@H](C)[C@@H](O[C@H]2CC[C@H](N(C)C)[C@H](C)O2)/C=C\C=C/C[C@@H](C)OC(=O)C[C@H]1O | inconclusive: 0.251 µM [activator, full curve, poor fit] | –

Further structures follow.

Compound | Potency | cytoprotection (ATP increase)
COc1ccc2cnn(-c3ccccc3C)c(=O)c2c1OC | – | inactive: -7.95% [at 10 µM]
N#Cc1cc2sc3nnc(-c4ccncc4)n3c2cc1C#N | active: 12.6 µM | –
Nc1cc(=O)nc(SCC(=O)Nc2cccc3ccccc23)n1CCc1ccccc1 | inconclusive: 1 µM [activator, single point] | –
CCO[C@H]1OC(C(=O)N2CCN(Cc3ccc4c(c3)OCO4)CC2)=C[C@@H](c2ccc(Br)cc2)[C@@H]1CCCO | inconclusive: 0.891 µM [activator, single point] | –
CCOC(=O)Cc1csc(N/C(=N/S(=O)(=O)c2ccc(Cl)cc2)c2ccccc2)n1 | inconclusive: 2.82 µM [activator, single point] | –
C/C(=N\NC(=O)Cn1ccc(C(F)(F)F)n1)c1ccc2c(c1)OCO2 | inconclusive: 5.62 µM [activator, partial curve] | –
CN(C)CCn1c(N)nc2ccccc21 | – | inactive: 12% [at 10 µM]
O=C(O)CCC(=O)Nc1ccc(Sc2ccc([N+](=O)[O-])cc2)cc1 | inconclusive: 1.41 µM [activator, partial curve] | –
COCCCn1c(C)csc1=Nc1cccnc1 | inconclusive: 2.24 µM [activator, partial curve] | –
COc1ccc(CN=Cc2c(O)[nH]c3ccccc23)cc1 | – | inactive: -66.2%
O=C(CSc1nnc(SCc2ccccc2Cl)s1)N/N=C/c1c[nH]c2ccccc12 | inconclusive: 5.62 µM [activator, single point] | –
COc1ccc(S(=O)(=O)Nc2ccc(NC(C)=O)cc2)cc1Cl | inconclusive: 0.562 µM [activator, full curve, poor fit] | –
Cc1cccc(NC(=S)N/N=C2\CC(C)(C)Oc3ccc(O)cc32)c1 | inconclusive: 2.24 µM [activator, partial curve] | –
CN(C)C1=NCC(CSC(=N)N)S1 (centres undefined) | inconclusive: 35.5 µM [activator, single point] | –
Cc1ccc(OCCn2cc(/C=C3\C(=O)NN(c4ccccc4)C3=O)c3ccccc32)cc1 | inconclusive: 5.62 µM [activator, single point] | –
CCC(=O)Nc1ccc(SC#N)cc1C | inconclusive: 31.6 µM [activator, single point] | –
O=C(O)c1ccc(CNC(=S)Nc2ccccc2)cc1 | inconclusive: 35.5 µM [activator, single point] | –
COc1ccc(CNC(=O)C(c2cccs2)N(C(=O)c2csnn2)C2CC2)cc1 (centres undefined) | active: 25.1 µM | –
NS(=O)(=O)c1ccc(NC(=S)Nc2ccc(F)c(F)c2)cc1 | inconclusive: 0.891 µM [activator, single point] | –
Cc1ccc(C2Nc3ccccc3-c3nc4ccccc4n32)o1 (centres undefined) | – | inactive: -27.9% [at 10 µM]

Reference: PubChem BioAssay AID1471 (National Center for Advancing Translational Sciences (NCATS), 2008)
